The other results are listed elsewhere or left out. These are further read-outs of the screen, such as a control signal, another cell line or another target. No call is given for them. Compounds called inactive in the main read-out are mostly missing here. The note in brackets gives the kind of curve behind each potency; many fits are weak.
Experiment: qHTS Assay to Find Inhibitors of Chronic Active B-Cell Receptor Signaling
Conditions: ABC-DLBCL IkBa-CBG/CBR reporter, luminescence ratio (green luciferase fused to IkBa over red control in TMD8 lymphoma cells), 4 h
How it was run: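 TMD8 ABC-DLBCL cells carrying doxycycline-inducible green luciferase fused to IkappaBalpha plus unfused red luciferase were exposed to compounds (up to 46 uM) for 4 hrs at 37C. Activity came from the overlap-corrected green/red luminescence ratio.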

[1] = measured here: CBR red luminescence, cell number
[2] = measured here: IkBa-CBG green luminescence

Row | SMILES | AC50 [1] | AC50 [2]
1 | O=C(/C=C/c1ccccc1)NC1CC2CCC1C2 (stereo not drawn) | 20.6 µM [falling, partial curve] | 
2 | COc1ccc(C/C(N)=N/n2cnnc2)cc1Cl | 0.82 µM [falling, full curve, poor fit] | 
3 | COc1ccc(-n2cc(C(=O)c3cc(Cl)ccc3O)cc(C#N)c2=O)cc1 | 6.31 µM [falling, full curve, poor fit] | 
4 | C=CCNC(=S)NNC(=O)c1ccc(Br)cc1 | 3.66 µM [falling, single point] | 
5 | CCOc1ccc(C(=O)NCC(=O)OCC(=O)N2CCC(C)CC2)cc1 | 1.84 µM [falling, partial curve, poor fit] | 
6 | Cc1ccc(C)c(N2C(=N)S/C(=C\c3ccc(-c4ccccc4C(=O)O)o3)C2=O)c1 | 15.8 µM [falling, partial curve, poor fit] | 
7 | Cc1ccc(CNc2ncccc2-c2nc3cc(Cl)ccc3o2)cc1 | 6.51 µM [rising, single point] | 
8 | COc1cc(NC(=O)CSc2nc3[nH]ncc3c(=O)n2-c2ccc(Cl)cc2)cc(OC)c1 | 15.8 µM [falling, single point] | 
9 | O=C(CSc1nncn1-c1ccccn1)Nc1ccccc1Cl | 11.2 µM [falling, partial curve, poor fit] | 
10 | CCSc1nnc(-c2cccc(S(=O)(=O)N(C)C)c2)n1-c1cc(OC)ccc1OC | 12.6 µM [falling, partial curve, poor fit] | 
11 | O=C(NCCC(=O)N1CCc2ccccc21)c1ccco1 | 25.1 µM [rising, single point] | 
12 | O=c1oc(-c2ccco2)nc2ccccc12 | 11.2 µM [falling, partial curve] | 
13 | COc1cc(NC(=O)CCN2CCN(C/C=C/c3ccccc3)CC2)cc(OC)c1 | 11.2 µM [falling, single point] | 
14 | CCN(CC(=O)Nc1ccc(OC)cc1)C(=O)Cc1coc2cc(C)c(C)cc12 | 16.4 µM [falling, single point] | 
15 | Cc1ccc(/C=C/C(=O)NCc2ccncc2)cc1 | 14.6 µM [falling, single point] | 
16 | Cc1cc(-c2n[nH]c(=S)n2-c2ccccc2C)cs1 | 18.4 µM [falling, partial curve] | 18.4 µM [falling, partial curve, poor fit]
17 | O=c1c2cc(-c3ccccc3)sc2nc2n1N=C(c1cccs1)CS2 | 0.282 µM [falling, full curve, poor fit] | 
18 | CCOc1ccc(/C=N/NC(=O)c2ccoc2C)cc1OC | 11.2 µM [falling, partial curve, poor fit] | 
19 | Cc1ccc(NC(=O)COC(=O)Cn2c(C)csc2=O)cc1C | 3.26 µM [rising, full curve, poor fit] | 
20 | N#CCC(N)=C(C#N)C#N | 20.6 µM [falling, partial curve, poor fit] | 
21 | CCCN(CC1CC1)C(=O)COC(=O)c1[nH]c(C)c(C(=O)OCC)c1C | 10.3 µM [falling, partial curve, poor fit] | 

Row | SMILES | AC50 [1] | AC50 [2]
22 | CC(C)c1c(O)nc(SCc2ccc(F)cc2)[nH]c1=O | 25.1 µM [rising, single point] | 
23 | N#Cc1c(N)nc2c(c1-c1ccncc1)CCCC2 | 8.91 µM [falling, partial curve] | 
24 | Oc1c(Cl)cc(Cl)cc1/C=C/c1ccc2cccc(O)c2n1 | 11.2 µM [rising, partial curve] | 22.4 µM [falling, single point]
25 | Cc1nc(NC(=O)c2oc3ccccc3c2C)sc1C(=O)N(C)C | 4.11 µM [falling, full curve, poor fit] | 
26 | CCN(C(=O)CN1CCCCC1)c1c(N)n(Cc2ccccc2)c(=O)[nH]c1=O | 20.6 µM [falling, partial curve, poor fit] | 
27 | COc1ccc(C(=O)C(Cc2cc(C(C)=O)ccc2OC)N2CCCC2)cc1 (stereo not drawn) | 1.12 µM [rising, partial curve, poor fit] | 
28 | CCOc1cc(-c2nnc(SCC(=O)NCc3ccccc3)nc2-c2ccc(OC)c(OCC)c2)ccc1OC | 4.47 µM [rising, full curve, poor fit] | 5.01 µM [falling, full curve]
29 | O=C(O)COc1ccc(Br)cc1/C=N/O | 0.355 µM [falling, partial curve, poor fit] | 
30 | COc1ccc(OCC(=O)Nc2ccc3c(c2)OCO3)cc1 | 8.91 µM [falling, partial curve, poor fit] | 
31 | Cc1ccc(O)c(CNc2cnc3ccccc3c2)c1 | 0.562 µM [rising, full curve] | 
32 | Cc1cccc2[nH]c(-c3ccc(NC(=O)c4ccco4)cc3)nc12 | 11.2 µM [falling, partial curve, poor fit] | 
33 | C=CCOc1c(CNc2cccc(C(=O)O)c2)cccc1OC | 1.03 µM [rising, partial curve] | 1.16 µM [rising, full curve, poor fit]
34 | COc1ccc(CNC(=S)Nc2ccc(S(N)(=O)=O)cc2)cc1 | 2.51 µM [falling, partial curve, poor fit] | 
35 | O=C1c2ccccc2C(Nc2ccc3c(c2)OCCO3)N1Cc1ccccc1 (stereo not drawn) | 0.731 µM [rising, partial curve, poor fit] | 
36 | CN(C)C=Nc1ncc2c([nH]c3ccccc32)c1C#N | 10 µM [falling, partial curve] | 
37 | COc1cc2c(C#N)c(N3CCN(c4ccccc4OC)CC3)nc(N)c2c(N)n1 | 10.3 µM [falling, partial curve] | 
38 | CSC1=NCCN1C(=O)c1ccc(S(=O)(=O)N(C)C)cc1 | 1.84 µM [rising, full curve, poor fit] | 
39 | CCC(CC)NC(=O)COC(=O)c1ccc(OCC(=O)Nc2ccccc2OC)c(OC)c1 | 18.4 µM [falling, partial curve, poor fit] | 
40 | CCN(C(=O)COC(=O)c1c(C)nn(-c2ccccc2)c1C)C1CCS(=O)(=O)C1 (stereo not drawn) | 0.631 µM [falling, full curve, poor fit] | 8.91 µM [rising, partial curve, poor fit]
41 | N#CCCn1nc(-c2ccccc2)cc1-n1c(C(F)(F)F)nc2ccccc21 | 35.5 µM [falling, single point] | 
42 | CCCOC(=O)c1cc(NC(=O)/C=C/c2ccccc2)ccc1O | 3.55 µM [falling, full curve, poor fit] | 

Sorted by SMILES length (ascending): some entries from above.
Row | SMILES | AC50 [1] | AC50 [2]
34 | COc1ccc(CNC(=S)Nc2ccc(S(N)(=O)=O)cc2)cc1 | 2.51 µM [falling, partial curve, poor fit] | 
27 | COc1ccc(C(=O)C(Cc2cc(C(C)=O)ccc2OC)N2CCCC2)cc1 (stereo not drawn) | 1.12 µM [rising, partial curve, poor fit] | 
28 | CCOc1cc(-c2nnc(SCC(=O)NCc3ccccc3)nc2-c2ccc(OC)c(OCC)c2)ccc1OC | 4.47 µM [rising, full curve, poor fit] | 5.01 µM [falling, full curve]

Following part

Row | SMILES | AC50 [1] | AC50 [2]
43 | CCc1sc(C(=O)Nc2cccnc2)cc1Br | 0.794 µM [rising, full curve, poor fit] | 
44 | O=C(NC1CCc2ccccc21)c1cc(COc2ccc(F)cc2F)on1 (stereo not drawn) | 3.98 µM [falling, partial curve, poor fit] | 
45 | O=C(CSc1n[nH]c(-c2ccc(Br)cc2)n1)N1CCOCC1 | 4.11 µM [rising, single point] | 
46 | COc1ccccc1NC(=O)CSc1nc2ccccc2c(=O)n1CCC(=O)NC1CCCCC1 | 35.5 µM [falling, single point] | 
47 | O=C(/C=C/c1ccccc1Cl)NCCc1ccccc1 | 12.6 µM [falling, single point] | 
48 | Cn1c(/C(C#N)=C/Nc2ccccn2)nc2ccccc21 | 0.103 µM [rising, full curve, poor fit] | 
49 | COC(=O)c1c(C)cc(C)n2c1nc1ccccc12 | 35.5 µM [falling, single point] | 
50 | CC(C)(C)C(=O)O/N=C(\N)COc1cccc(Cl)c1 | 35.5 µM [rising, single point] | 
51 | Cc1ccc(S(=O)(=O)N2CCCOC2CNC(=O)C(=O)NCCC2=CCCCC2)cc1 (stereo not drawn) | 23.1 µM [rising, single point] | 
52 | Cc1noc(C)c1CSc1ccccc1C(=O)N(C)CC(=O)Nc1cccc(F)c1 | 5.8 µM [rising, partial curve, poor fit] | 
53 | O=C(Nc1ccc2ccccc2c1)c1cccnc1 | 11.2 µM [falling, partial curve, poor fit] | 
54 | CC1CN=C(N(C(=S)Nc2ccccc2)c2cccc(C(F)(F)F)c2)S1 (stereo not drawn) | 1 µM [rising, full curve] | 
55 | COc1ccc(CCNC(=O)c2ccc(CS(=O)Cc3ccc(Cl)cc3)o2)cc1OC (stereo not drawn) | 0.112 µM [falling, full curve, poor fit] | 
56 | COCCNCCCCSc1ccc(Cl)cc1 | 10 µM [falling, partial curve, poor fit] | 
57 | S=C(NCc1ccc2[nH]c3c(c2c1)CCCC3)Nc1ccccc1Cl |  | 20.6 µM [falling, single point]
58 | CCN(CC)Cc1c(C(=O)N/N=C/c2cccc3ccccc23)nnn1-c1nonc1N | 3.16 µM [falling, single point] | 
59 | CCCc1cc2c(cc1NC(=O)c1ccccc1F)OCO2 | 32.6 µM [rising, single point] | 
60 | CCN(CC)C(=O)C1CCCN(c2ccc([N+](=O)[O-])cc2/C=N/NC(=O)c2cccc(Br)c2)C1 (stereo not drawn) | 2.82 µM [falling, partial curve, poor fit] | 
61 | Cc1c(N(C)S(=O)(=O)c2cccc(C(=O)NCC3CCCO3)c2)c(=O)n(-c2ccccc2)n1C (stereo not drawn) | 32.6 µM [rising, partial curve, poor fit] | 
62 | O=C(N/N=C/C(Cl)=C/c1ccccc1)c1ccccn1 | 11.2 µM [falling, partial curve] | 
63 | Cc1ccc(-n2ncc3c(N(C)Cc4ccccc4)ncnc32)cc1 | 5.01 µM [rising, partial curve, poor fit] | 
